Results taken from PMC4479014.
These are yes or no findings as the source states them, for the method shown. Binding seen in cells or lysates may run through a third protein. Some entries that bind do so weakly or less than the wild type.

Amino acid sequences for entries named in this document (tags omitted).
UniProt P56959: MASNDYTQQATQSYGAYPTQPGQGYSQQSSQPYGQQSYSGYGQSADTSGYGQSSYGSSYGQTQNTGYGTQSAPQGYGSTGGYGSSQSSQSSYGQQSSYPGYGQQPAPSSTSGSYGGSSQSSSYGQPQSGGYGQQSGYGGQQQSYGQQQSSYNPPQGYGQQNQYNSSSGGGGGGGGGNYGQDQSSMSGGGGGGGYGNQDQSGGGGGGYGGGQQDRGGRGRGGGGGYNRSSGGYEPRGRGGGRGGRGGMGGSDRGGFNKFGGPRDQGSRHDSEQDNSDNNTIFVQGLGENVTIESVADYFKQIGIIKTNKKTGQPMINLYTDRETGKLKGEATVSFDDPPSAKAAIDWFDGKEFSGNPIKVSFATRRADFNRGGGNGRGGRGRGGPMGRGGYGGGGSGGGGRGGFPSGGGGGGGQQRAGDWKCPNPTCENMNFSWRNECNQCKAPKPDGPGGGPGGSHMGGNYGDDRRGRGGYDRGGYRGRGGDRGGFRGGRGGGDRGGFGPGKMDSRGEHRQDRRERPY
UniProt P29341: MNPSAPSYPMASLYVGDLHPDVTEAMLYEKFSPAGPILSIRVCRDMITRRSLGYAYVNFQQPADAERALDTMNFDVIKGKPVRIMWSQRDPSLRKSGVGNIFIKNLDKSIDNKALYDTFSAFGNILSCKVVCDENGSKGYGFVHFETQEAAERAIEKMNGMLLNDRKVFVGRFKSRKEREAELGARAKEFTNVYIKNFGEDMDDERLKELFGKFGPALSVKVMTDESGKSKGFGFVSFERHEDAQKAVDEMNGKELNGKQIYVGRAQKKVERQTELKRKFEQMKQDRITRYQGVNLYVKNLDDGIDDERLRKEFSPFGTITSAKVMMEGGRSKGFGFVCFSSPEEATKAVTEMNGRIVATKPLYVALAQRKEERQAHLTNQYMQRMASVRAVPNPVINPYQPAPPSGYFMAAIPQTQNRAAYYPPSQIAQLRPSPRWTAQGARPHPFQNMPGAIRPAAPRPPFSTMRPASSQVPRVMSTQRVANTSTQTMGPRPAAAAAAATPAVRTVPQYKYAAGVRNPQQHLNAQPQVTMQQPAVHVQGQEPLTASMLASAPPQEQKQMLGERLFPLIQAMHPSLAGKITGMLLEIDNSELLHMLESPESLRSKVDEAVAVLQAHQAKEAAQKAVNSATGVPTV

Assays:
[1] = biological target: FUS (in neuroblastoma cells) (UniProt P56959); assay: co-IP; IP of endogenous FUS from neuroblastoma cell lysate; western blot (Supplementary Fig. 8)
[2] = biological target: FUS (mouse (endogenous in mouse brain and mouse primary neurons)) (UniProt P56959); assay: co-IP; IP of endogenous FUS from primary neuron lysate; western blot (Supplementary Fig. 8)
[3] = biological target: FUS (mouse (endogenous in mouse brain and mouse primary neurons)) (UniProt P56959); assay: co-IP; co-IP with FUS in the nuclear fraction of cultured hippocampal neurons (Supplementary Fig. 8e)
[4] = biological target: FUS (mouse (endogenous in mouse brain and mouse primary neurons)) (UniProt P56959); assay: co-IP; co-IP with FUS in the cytoplasmic fraction of cultured hippocampal neurons (Supplementary Fig. 8e)
[5] = biological target: FUS (mouse (endogenous in mouse brain and mouse primary neurons)) (UniProt P56959); assay: co-IP; IP of endogenous FUS from mouse brain lysate, without RNase A (Brain IP buffer with RNase inhibitor: 25 mM HEPES-KOH pH 7.4, 150 mM NaCl, 5 mM MgCl2, 1 mM EDTA, 1% IGEPAL-CA630); Protein G dynabeads, 4 °C; western blot
[6] = biological target: cytoplasmic poly (A)-binding protein PABPC1 (mouse (endogenous in mouse brain and mouse primary neurons)) (UniProt P29341); assay: co-IP; IP of endogenous PABPC1 from lysates of control and FUS knockdown (shRNA lentivirus) primary cortical neurons; western blot
[7] = biological target: FUS (mouse (endogenous in mouse brain and mouse primary neurons)) (UniProt P56959); assay: co-IP; IP of endogenous FUS from mouse brain lysate, Brain IP buffer with RNase A throughout the procedure; Protein G dynabeads, 4 °C; western blot

Measured: binding

cytoplasmic poly (A)-binding protein PABPC1 (in neuroblastoma cells) (from UniProt P29341 1-636)
binds: [1]

cytoplasmic poly (A)-binding protein PABPC1 (from UniProt P29341 1-636)
binds: [2] | [3] | [4] | [5]

B1: poly (A)-specific ribonuclease PAN2 (protein, UniProt Q8BGF7 1-1200)
chain: MNFEGLDPGLAEFSPAMHSTLDPVLDAHLNPSLLQNVELDPEGVALEALPVQESVHIMEGVYSELHSVVAEVGVPVSVSHFDLHEEMLWVGSHGGHATSFFGPALERYSSFQVNGGDDIRQIQSLENGILFLTKNNLKYMARGGLIIFDYLLDENEDMHSVLLTDNSTLLVGGLQNHVLEIDLNTVQETQKYAVETPGVTIMRQTNRFFFCGHTSGKVSLRDLRSFKVEHEFDAFSGSLSDFDVHGNLLAACGFSSRLTGLACDRFLKVYDLRMMRAITPLQVHVDPAFLRFIPTYTSRLAIISQSGQCQFCEPTGLANPADIFHVNPVGPLLMTFDVSASKQALAFGDSEGCVHLWTDSPEPSFNPYSRETEFALPCLVDSLPPLDWSQDLLPLSLIPVPLTTDALLSDWPAANSAPAPRRAPPVDAEILRTMKKVGFIGYAPNPRTRLRNQIPYRLKESDHEFDNFSQVTESPTGREEEPLHTVSKKYRKVTIKYSKLGLEDFDFKHYNKTLFAGLEPHIPNAYCNCMIQVLYFLEPVRCLIQNHLCQKEFCLACELGFLFHMLDLSRGDPCQGSNFLRAFRTIPEASALGLILADSDEASGKGSLARLIQRWNRFILTQLHQDMQELEVPQAYRGAGGSFCSSGDSIIGQLFSCEMENCSLCRCGSETVRASSTLLFTLSYPEDKTGKNYDFAQVLKRSICLEQNTQAWCDNCEKYQPTIQTRNIRHLPDILVINCEVNSSKEADFWRLQAEVAFKIAVKKYGGEMKSKEFALADRKELRSPEGFLCSSIEELKNVWLPFSIRMKMTKNKGLDVCNWADEHELSSLGAPSQWGPARAEEELGVYVYDLMATVVHILDSRTGGSLVAHIKVGETYHQRKEGVTHQQWYLFNDFLIEPIDKYEAVQFDMNWKVPAILYYVKRNLNSRYNLNIKNPIEASVLLAEASLARKQRKTHTTFIPLMLNEMPQVGDLVGLDAEFVTLNEEEAELRSDGTKSTIKPSQMSVARITCVRGQGPNEGIPFIDDYISTQEQVVDYLTQYSGIKPGDLDAKISSKHLTTLKSTYLKLRFLIDIGVKFVGHGLQKDFRVINLMVPKDQVLDTVYLFHMPRKRMISLRFLAWYFLDLKIQGETHDSIEDARTALQLYRKYLELSKNGTEPESFHKVLKGLYEKGRKMDWKVPEPESQTSPKNAAVFSVLAL
binds: [2] | [4] | [6] | [7] | [5]

B2: poly (A)-specific ribonuclease PAN2 (in neuroblastoma cells) (protein, UniProt Q8BGF7 1-1200)
chain: B1 chain
binds: [1]

B3: cleavage and polyadenylation-specific factor CPSF6 (in neuroblastoma cells) (protein, UniProt Q6NVF9 1-551)
chain: MADGVDHIDIYADVGEEFNQEAEYGGHDQIDLYDDVISPSANNGDAPEDRDYMDTLPPTVGDDVGKGAAPNVVYTYTGKRIALYIGNLTWWTTDEDLTEAVHSLGVNDILEIKFFENRANGQSKGFALVGVGSEASSKKLMDLLPKRELHGQSPVVTPCNKQFLSQFEMQSRKTTQSGQMSGEGKAGPPGGGSRAAFPQGGRGRGRFPGAVPGGDRFPGPAGPGGPPPPFPAGQTPPRPPLGPPGPPGPPGPPPPGQVLPPPLAGPPNRGDRPPPPVLFPGQPFGQPPLGPLPPGPPPPVPGYGPPPGPPPPQQGPPPPPGPFPPRPPGPLGPPLTLAPPPHLPGPPPGAPPPAPHVNPAFFPPPTNSGMPTSDSRGPPPTDPYGRPPPYDRGDYGPPGREMDTARTPLSEAEFEEIMNRNRAISSSAISRAVSDASAGDYGSAIETLVTAISLIKQSKVSADDRCKVLISSLQDCLHGIESKSYGSGSRRERSRERDHSRSREKSRRHKSRSRDRHDDYYRERSRERERHRDRDRDRDRERDREREYRHR
binds: [1]

B4: cleavage and polyadenylation-specific factor CPSF6 (protein, UniProt Q6NVF9 1-551)
chain: B3 chain
binds: [2] | [3] | [4] | [6] | [7] | [5]
